Experimental data taken from PubChem BioAssay AID1347076 (National Center for Advancing Translational Sciences (NCATS), 2019).
Hit rate of the full screen: of about 400,000 compounds, about 13,000 (3.2%) were called active. The inconclusive results got no clear call from the source; some entries with a clear call stand among them for comparison. Calls follow the shape of the dose curve; as a rule, active = well fitted cell-killing curve with a large enough effect; inconclusive = small, poorly fitted or top-dose-only effect, or effect the other way; inactive = flat fitted curve, though single readings scatter. Where the call is inconclusive, the potency comes from a doubtful curve fit.

experiment: qHTS assay for MDR1-selective chemotherapeutics: Primary screen using the drug-selected MDR subline cells KB-V1; details: KB-V1 MDR cells viability, CellTiter-Glo, 72 h; series mostly up to 46.1 µM; also: nearly all actives have a fitted effect of over 60% in size
Summary of the method: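 Cytotoxicity toward P-gp-expressing KB-V1 cells was determined as loss of CellTiter-Glo luminescence after 72 h at 37 degrees C. Compounds were tested in quantitative HTS format across a concentration range, with curves fitted to normalized data.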
Potency is read from the fitted curve at half-maximal effect.

| SMILES | Potency |
| --- | --- |
| CCc1ccc(-n2nc(C)c3c(C)cc(=O)n(CC(=O)N(CC)Cc4ccccc4)c32)cc1 | inactive |
| COC(=O)c1ccc(COC(=O)c2ccc(N(C)C)cc2)cc1 | inactive |
| COc1ccc(-c2coc3c(C(=O)NCC4CCOCC4)cccc23)c(C)c1 | inconclusive: 3.26 µM [cytotoxic, full curve] |
| CCC(C)C(=O)Nc1ncc2c(n1)CC(c1cccs1)CC2=O (stereo not given) | inconclusive: 18.4 µM [cytotoxic, single point] |
| COc1ccccc1C1=NN(C(=O)c2ccccc2)C(c2ccc(Br)cc2)C1 (stereo not given) | inconclusive: 3.26 µM [cytotoxic, partial curve, poor fit] |
| CCc1cccc(CC)c1NC(=S)N1CCn2cccc2C1c1ccncc1 (stereo not given) | inactive |
| NC1=NC[C@@H](Cc2ccc(O)cc2)N1CCC12CC3CC(CC(C3)C1)C2 | inconclusive: 20.6 µM [cytotoxic, single point] |
| COc1ccc(Nc2nc(C)c(-c3ccccc3)s2)cc1 | inconclusive: 16.4 µM [cytotoxic, single point] |
| CC(C)c1cccc(C(C)C)c1NC(=O)COC(=O)c1ccc(OCC(=O)Nc2cccc(C(F)(F)F)c2)cc1 | inconclusive: 25.9 µM [cytotoxic, partial curve, poor fit] |
| COC(=O)c1c(NS(=O)(=O)Cc2ccccc2)sc2c1CCCC2 | inconclusive: 29.1 µM [cytotoxic, single point] |
| COc1ccc(C=NC(CO)C(O)c2ccc([N+](=O)[O-])cc2)cc1 (stereo not given) | inconclusive: 10.3 µM [rising, partial curve, poor fit] |
| COc1ccccc1NC(=O)CSc1nc(-c2cccc(Cl)c2)nc2c1Cc1c(CO)cnc(C)c1O2 | inactive |
| Cn1c(=O)c2c(nc(SCC(=O)NC34CC5CC(CC(C5)C3)C4)n2C)n(C)c1=O | inconclusive: 5.17 µM [cytotoxic, partial curve, poor fit] |
| Cc1ccccc1-c1cc(C(=O)n2cccn2)c2cc(Cl)ccc2n1 | inactive |
| CN(C)S(=O)(=O)c1ccc(NC(=O)/C=C/c2ccccc2Cl)cc1 | active: 14.6 µM |
| CSc1ccc(-c2sc(Nc3ccccc3)n[n+]2-c2ccccc2)cc1 | inactive |
| O=[N+]([O-])c1ccc(Cl)cc1C=NNc1ccccn1 | inactive |
| CC/C(=N\NC(=O)c1cc(C2CC2)[nH]n1)c1ccccc1 | inconclusive: 3.66 µM [rising, full curve, poor fit] |
| O=C(Nc1ccccc1N1CCCCC1)c1ccc([N+](=O)[O-])o1 | inconclusive: 18.4 µM [cytotoxic, single point] |
| COc1ccc(C2C(C#N)=C(N)Oc3c2c(-c2ccccc2)nn3-c2ccccc2)c(OC)c1OC (stereo not given) | inconclusive: 20.6 µM [cytotoxic, single point] |
| Cn1c(=O)c2c(nc3n2CC(O)CN3c2ccc(O)cc2)n(C)c1=O (stereo not given) | inconclusive: 25.9 µM [rising, partial curve, poor fit] |
| O=C(Oc1ccc(Cl)c2cccnc12)N1CCCCC1 | inactive |
| O=C(Nc1ccccc1)C1CCN(c2nccs2)CC1 | inactive |
| O=C(CCc1nnc2ccc(N3CCCCC3)nn12)NCc1ccco1 | inconclusive: 16.4 µM [rising, single point] |

| SMILES | Potency |
| --- | --- |
| CC(OC(=O)CCN1C(=O)C2CC=CCC2C1=O)C(=O)c1ccc(F)cc1 (stereo not given) | inactive |
| CN(CCOc1ccc(Cl)cc1)Cc1cccc(S(=O)(=O)N(C)C)c1 | active: 7.31 µM |
| O=C(Nc1ccc(Oc2ccccc2)cc1)c1csc([C@@H]2O[C@H](CO)[C@@H](O)[C@H]2O)n1 | inconclusive: 4.11 µM [cytotoxic, partial curve] |
| Cc1cc(NCCCN2CCOCC2)n2nc(C)c(-c3ccc(F)cc3)c2n1 | inactive |
| COc1ccccc1N1CCN(C(=O)c2[nH]c(C(F)(F)F)nc2-c2ccccc2)CC1 | inconclusive: 11.6 µM [cytotoxic, partial curve] |
| CN(C)C(=O)c1cccc(-c2cnc3c(NC=O)cc(-c4ccccc4N(C)C)cn23)c1 | inconclusive: 20.6 µM [cytotoxic, single point] |
| COc1ccc(CCC(=O)Nc2nnc(C)s2)cc1 | inactive |
| Cn1c(=O)c2c(nc(NCc3ccccc3)n2Cc2ccc(Cl)c(Cl)c2)n(C)c1=O | active: 18.4 µM |
| Cc1cc(C)nc(N2CCCC(C(=O)Nc3nnc(C)s3)C2)n1 (stereo not given) | active: 18.4 µM |
| O=C(COc1cccc2cccnc12)Nc1cccc(S(=O)(=O)N2CCCC2)c1 | inconclusive: 23.1 µM [cytotoxic, single point] |
| O=C1CCC(C(=O)Nc2ccccc2N2CCOCC2)=NN1 | inactive |
| CC1Cc2ccccc2N1C(=O)CO/N=C/c1ccccc1OC(F)F (stereo not given) | inconclusive: 13 µM [cytotoxic, partial curve] |
| CCCSc1nc2c(c(=O)[nH]1)C(c1ccc(O)c(OCC)c1)CC(=O)N2 (stereo not given) | inactive |
| CS(=O)(=O)N1Cc2cc(C(=O)NCC3CCCCC3)nc(-c3cccc(-c4cccnc4)c3)c2[C@H]1CCO | inconclusive: 18.4 µM [cytotoxic, partial curve, poor fit] |
| CC(=O)Nc1ccc(S(=O)(=O)N(C)CC(=O)OC(C)C(=O)NC2(C#N)CCCCC2)cc1 (stereo not given) | inactive |
| Cc1ccc(-n2cc(CN3CCC(CO)(Cc4cccc(C(F)(F)F)c4)CC3)cn2)cc1 | inconclusive: 18.4 µM [cytotoxic, single point] |
| COc1ccc(CCC(=O)OCC(=O)NC2CCCC2)cc1OC | inactive |
| COc1ccc(-c2cn[nH]c2-c2ccc(OCC(=O)NN)cc2O)cc1 | inconclusive: 18.4 µM [rising, single point] |
| CCc1cccc(OCCCCNCCOC)c1 | inactive |
| Cc1c(NC(=O)COc2ncnc3ccccc23)c(=O)n(-c2ccccc2)n1C | inconclusive: 8.2 µM [rising, partial curve] |
| CCOc1ccc(CSCCNC(=S)Nc2ccccc2)cc1 | inconclusive: 18.4 µM [cytotoxic, single point] |
| Clc1ccc(/C=N/NC(=Nc2ccccc2)c2ccccn2)c(Cl)c1 | inconclusive: 23.1 µM [cytotoxic, single point] |
| C=CCn1c(=NC(=O)c2ccccc2[N+](=O)[O-])sc2cc(S(C)(=O)=O)ccc21 | inactive |
| O=c1[nH]ccc2c(O)cccc12 | inactive |

Shown as tab-separated lines: 3 of the compounds above
SMILES	Potency
Cc1cc(C)nc(N2CCCC(C(=O)Nc3nnc(C)s3)C2)n1 (stereo not given)	active: 18.4 µM
O=C(COc1cccc2cccnc12)Nc1cccc(S(=O)(=O)N2CCCC2)c1	inconclusive: 23.1 µM [cytotoxic, single point]
O=C1CCC(C(=O)Nc2ccccc2N2CCOCC2)=NN1	inactive

The results go on:

| SMILES | Potency |
| --- | --- |
| CC(=NNc1nc2ccccc2o1)c1cc2ccccc2cn1 | inconclusive: 1.64 µM [cytotoxic, partial curve, poor fit] |
| COc1cccc(-n2c(SCc3cc(=O)oc4cc(O)c(O)cc34)nc3ccccc3c2=O)c1 | inactive |
| CCOC(=O)Cn1c(=O)c2c(nc(Br)n2Cc2ccc(Cl)cc2)n(C)c1=O | inconclusive: 4.11 µM [cytotoxic, full curve, poor fit] |
| COc1ccc(Nc2nc(N3CCOCC3)nc(N3CCOCC3)n2)cc1Cl | inconclusive: 9.2 µM [cytotoxic, partial curve] |
| COc1ccccc1-n1cnnc1SC(C)C(=O)Nc1cccc([N+](=O)[O-])c1 (stereo not given) | inconclusive: 13 µM [cytotoxic, partial curve] |
| CCc1cc2c(NCCO)ncnc2s1 | inconclusive: 10.3 µM [rising, partial curve, poor fit] |
| N#Cc1ccsc1NC(=O)C1CC(=O)N(Cc2ccccc2)C1 (stereo not given) | inactive |
| CC(C)(C)c1ccc(-n2nc(C#N)c(Cl)cc2=O)cc1 | inconclusive: 16.4 µM [cytotoxic, single point] |
| CCN(Cc1nc2ccccc2c(=O)[nH]1)Cc1cc(=O)oc2cc(OC)ccc12 | inconclusive: 9.2 µM [cytotoxic, partial curve, poor fit] |
| CCN(CCCCOC(=O)c1ccc(OC)c(OC)c1)C(C)Cc1ccc(OC)cc1 (stereo not given) | inconclusive: 6.51 µM [cytotoxic, partial curve] |
| COc1cc(/C=C2\C(=N)N3N=C(N4CCOCC4)SC3=NC2=O)ccc1OC(=O)c1ccccc1 | inconclusive: 2.91 µM [rising, partial curve, poor fit] |
| Cc1ccc(C(=O)NCCSc2ccc(Cl)cc2)cc1S(=O)(=O)Nc1ccccc1 | inconclusive: 23.1 µM [cytotoxic, single point] |
| CC(C)(C)CC(C)(C)N=C1Nc2ccc([N+](=O)[O-])cc2N[C@]12C[C@H]1CCCC(=O)N3CC[C@@H](C2)[C@@H]13 | inconclusive: 18.4 µM [cytotoxic, single point] |
| CN(Cc1ccccc1)C(=O)CN1C(=O)C2C3C=CC(C3)C2C1=O (stereo not given) | inconclusive: 35.5 µM [cytotoxic, single point] |
| CCCc1c(NC(=O)Nc2ccc(F)cc2)cnn1-c1ccccc1 | inconclusive: 10.3 µM [cytotoxic, partial curve] |
| CCSc1nnc(NC(=O)C2CCN(S(=O)(=O)c3cc(C(F)(F)F)ccc3Cl)CC2)s1 | inconclusive: 3.26 µM [cytotoxic, full curve] |
| CC(=O)OC(/C(O)=C(\C#N)c1nc2ccccc2[nH]1)c1ccccc1 (stereo not given) | inactive |
| COc1cccc(NC(=O)Nc2cc(-c3cn4cccnc4n3)ccc2OC)c1 | inactive |
| CCOC(=O)c1ccc(NC(=O)Nc2ccccn2)cc1 | inconclusive: 25.9 µM [cytotoxic, single point] |
| O=C(NCC(c1ccco1)S(=O)(=O)c1cccs1)c1ccc(C(F)(F)F)cc1 (stereo not given) | inconclusive: 0.184 µM [rising, full curve] |
| Cc1ccc(C(=O)Nc2nc(-c3ccc4c(c3)OCCO4)cs2)o1 | inactive |
| Cc1[nH]c2ccccc2c1/C=N/NC(=S)NC(C)C | inconclusive: 16.4 µM [cytotoxic, single point] |
